Assay results: article PMC10163288
The list shows a part of the results.

B1: il2ra_site1_3nfp_sap_9_mot_HHH_b1_00630_af2_000000193_0001_42_55_H_._HHH_b1_08000_af2_0001_0000100001_0000001_0_0001_af2pred_0001_af2pred_1 (protein)
chain: DLQELLQEDAEHASKWAGVTSVHVEVENGHVTVTVEADNNLAKALLLLLREAARQAGLEVEITIE
B2: il2ra_site2_2erj_sap_28_mot_HHH_b2_01204_af2_000000051_0001_19_34_H_._702f76d1131dc6d24a5c6e797340565d_0001_1_0001_0000100001_0000001_0_0001 (protein)
chain: SSSSNEELRELYELANELLRLLQEGDEEEFEKVLEEAKELAKKLDSENAKEILRWLERQLSSSSS
B3: il2ra_site2_2erj_sap_28_mot_HHH_b1_03572_af2_000000164_0001_41_56_H_._HHH_b1_00072_0001_0000100006_0000001_0_0001_af2pred_0001_1_af2pred_swapped (protein)
chain: SSSSSSEAEELVERLVEELNLSEEEKELLEEVAKQLEESGYNEELAERWLRMIVEALEKNSSSSS
B4: il2ra_site2_2erj_sap_29_mot_HHH_b1_07741_000000192_0001_1_20_H_._HHH_b1_04486_af2_0001_0000200006_0000001_0_0001 (protein)
chain: SSSSSDLHELYELAVRIMHLLARGDEEEAKELIERVKELAEELDSDNAREIAEWLERTLKSSSSS
B5: il2ra_site1_1z92_sap_10_mot_HHH_b2_05172_af2_000000284_0001_1_18_H_._HHH_b1_05364_af2_0001_0000100005_0000001_1_0001 (protein)
chain: SSSSDAWERAVEFALESLRRALELGNERSAERLFEFVRRQAENAHDPELERRVRELYEELSSSSS
B6: il2ra_site1_1z92_normal_mot_375b43ffed9a9ee9461e8325e968149e_0001_1_af2_000000109_0001_54_65_H_._fda5df8c19bda1ddfcc41857df859eb0_0001_1_0001_0000200014_0000001 … (protein)
chain: SVEELLREALRLAGFPPQSVERLLESAEEAAGGDPKQVVKLVLLDLERSGLLPPEAKEVLEEAER
B7: il2ra_site1_1z92_normal_mot_9daacd37e3baa650618043516f9fc948_0001_af2_000000116_0001_36_50_H_._e577cf9893892e11dfbc93bbc029d3b7_0001_0001_0000200046_0000001_0_a … (protein)
chain: DEPDLRELAARLGIAPEDLERMLKFLTEKNKIPRDLAEQLLRLLLRRVLEGDPRARRELAELLEV
B8: il2ra_site2_3nfp_normal_mot_HHH_b1_06586_000000201_0001_1_18_H_._HHH_b1_04442_0001_0000500037_0000001_0 (protein)
chain: SSSSSDREEFRRAVKSALRLAKQISDPELLKDAIAWAEALALMLGDDELERLVEEVEEELSSSSS
B9: il2ra_site1_2b5i_sap_27_mot_2cbe48e66a1f39b3fed734b245ab0a04_0001_000000015_0001_17_31_H_._HHH_b1_01788_0001_0000400018_0000001_0_0001_af2pred_dldesign_0_af2pre … (protein)
chain: SSSSSDPEAMLAEAERLFEAGEPEKALELLEKAAEEVDAADDRELKKRLVRLYYRVKVLSSSSSS
B10: il2ra_site1_2b5i_sap_15_mot_HHH_b2_06557_000000199_0001_42_56_H_._HHH_b1_01573_af2_0001_0000400035_0000001_0_0001_af2pred_dldesign_0_af2pred (protein)
chain: SSSSSSDTKEALELFLKADELFKAGKEEEAKKALEEALKLAEKAKCKLCIKIITSALKEISSSSS
B11: il2ra_site1_3nfp_normal_mot_HHH_b1_02869_af2_000000018_0001_41_55_H_._HEEHE_2123_0001_0000700044_0000001_0 (protein)
chain: ELELDVEHLARALARAARVPKVEIEIENNRVTVTVEGDDEAARRALEAAEQFWRLLGYEVENEIE
B12: il2ra_site2_2erj_normal_mot_ca9fcc9ace360711d783d1260e4fbff1_0001_1_af2_000000007_0001_15_32_H_._HHH_b2_05327_af2_0001_0000100002_0000001_0 (protein)
chain: SSSSDEALRRLFRLAVEILHALARGDPEEFEELVKELRELAKELNNREVEKLLEHLERLARSSSS
B13: il2ra_site2_2erj_normal_mot_HHH_b2_02572_000000008_0001_42_59_H_._HHH_b1_00676_0001_0000600027_0000001_0 (protein)
chain: SSSSSDEQEIFERVSELLLRLYHASEEEAEELLEEARRLAEENNSPELERYVEFARRDFSSSSSS
B14: il2ra_site1_2b5i_sap_15_mot_HHH_b1_08426_af2_000000046_0001_39_52_H_._1e759223bb6b7646c131a6179565dc37_0001_0001_0000300037_0000001_0_0001_af2pred_dldesign_0_af … (protein)
chain: SSSSSPEREKIKKLIEEAKEAKAAGKRREALELLEEAYKLASELGDEELEAEVEALAKEVSSSSS
B15: il2ra_site1_3nfp_normal_mot_HHH_b1_00042_af2_000000196_0001_42_57_H_._HHH_b1_04846_0001_0000300015_0000001_0 (protein)
chain: SSSSTEELEELKKLAEELWRLLREGDEEEIRRLLEEIEKLAREVNDEVAEWLVEQVEKLKSSSSS
B16: il2ra_site1_3nfp_normal_mot_891b8491a18eb46c9ad5c1702b87f9cc_0001_000000120_0001_18_33_H_._a977d6a2cfab3d20b8a840e59b1ed461_0001_1_0001_0000100007_0000001_0 (protein)
chain: DEELERVKELLEKLGDPQARALVKFLEQAFKSANVPPEYVLKALEEALEKLGDPEAVRLLEEAIK
B17: il2ra_site2_2erj_normal_mot_HHH_b1_04373_af2_000000118_0001_18_33_H_._HHH_b2_00397_0001_0000200023_0000001_0 (protein)
chain: SSSSDEIEEEARQILEEAEEAHEQGDLERTYELAVEALRVASEGNDEEAQRLVAEVAEKLSSSSS
B18: il2ra_site1_1z92_normal_mot_HHH_b2_02540_000000162_0001_1_16_H_._HHH_b1_06172_0001_0000500029_0000001_0 (protein)
chain: SSSSSKYEKAIRWALELLEAALKTESERLFEFLVEFIRLFVKQNNNEELQEELERLEEEFRSSSS

Target: il2ra, P01589
Assay: yeast display titration

Apparent Kd, inactive:
B1 no binding seen
B2 no binding seen
B3 no binding seen
B4 no binding seen
B5 no binding seen
B6 no binding seen
B7 no binding seen
B8 no binding seen
B9 no binding seen
B10 no binding seen
B11 no binding seen
B12 no binding seen
B13 no binding seen
B14 no binding seen
B15 no binding seen
B16 no binding seen
B17 no binding seen
B18 no binding seen

2 records picked at random from those above:
Apparent Kd, inactive:
B7 no binding seen
B14 no binding seen
